Assay results published in patent US11780895B2, “Targeted DNA demethylation and methylation” (The Jackson Laboratory, priority 2016, dated 2023).
Some of these results come from one statement about several compounds together.

Test system: TetO::tdTomato transgene
Assay: TetO::tdTomato transgene activation measured by FACS
Assay type: cell-based
Settings: with dCas9 and sgTetO-PBS
Description: In particular, to test whether appending PBS to the 3′ end of sgRNA affects sgRNA function, a series of modified Tet-targeting (sgTetO) or non-targeting control (sgControl) sgRNA were generated, with 0 copy, 5 copies, 15 copies, 25 copies, and 47 copies of the 8-mer Pumilio homologue domain-binding sequence (PBS) for PUF (3-2) (also simply referred to as PUFa) [PBS32 or PBSa: SEQ ID NO:8 (5′-UGUAUgUA-3′)], PUF(6-2/7-2) (also simply referred to as PUFb) [PBS6272 or PBSb: SEQ ID NO:9 (5′-UugAUAUA-3′)].
Cells were transfected with dCas9-VP64 with the different sgRNA scaffolds, and were analyzed by fluorescent-activated cell sorting (FACS) two days after transfection (FIG. 1B).
Fusions of PUF(3-2)::VP64 and PUF(6-2/7-2)::VP64, which interacts with sgRNA (sgRNA-PBS32) with 5′-UGUAUgUA-3′ binding sites and sgRNA-PBS6272 with 5′-UugAUAUA-3′ binding sites, respectively, were created, and their activity to turn on tdTomato expression in conjunction with dCas9 was tested. […]
Fluorescent-Activated Cell Sorting. […] Samples were analyzed on a FACScalibur flow cytometer using CellQuest Pro software (BD Bioscience). […] were collected in each run.

Molecule | copies of PBS appended to the sgRNA best able to activate the target transgene
PUFa-VP64: PUF(3-2) domain with NLS fused to VP64 (protein) MGILPPKKKRKVSRGRSRLLEDFRNNRYPNLQLREIAGHIMEFSQDQHGSRFIQLKLERATPAERQLVFNEILQAAYQLMVDVFGNYVIQKFFEFGSLEQKLALAERIRGHVLSLALQMYGSRVIEKALEFIPSDQQNEMVRELDGHVLKCVKDQNGNHVVQKCIECVQPQSLQFIIDAFKGQVFALSTHPYGCRVIQRILEHCLPDQTLPILEELHQHTEQLVQDQYGNYVIQHVLEHGRPEDKSKIVAEIRGNVLVLSQHKFASNVVEKCVTHASRTERAVLIDEVCTMNDGPHSALYTMMKDQYANYVVQKMIDVAEPGQRKIVMHKIRPHIATLRKYTYGKHILAKLEKYYMKNGVDLGGPAGSGRADALDDFDLDMLGSDALDDFDLDMLGSDALDDFDLDMLGSDALDDFDLDMLYID | 5-10 copies
PUFb-VP64: PUF(6-2/7-2) domain with NLS fused to VP64 (protein) MGILPPKKKRKVSRGRSRLLEDFRNNRYPNLQLREIAGHIMEFSQDQHGSRFIQLKLERATPAERQLVFNEILQAAYQLMVDVFGNYVIQKFFEFGSLEQKLALAERIRGHVLSLALQMYGCRVIQKALEFIPSDQQNEMVRELDGHVLKCVKDQNGNHVVQKCIECVQPQSLQFIIDAFKGQVFALSTHPYGCRVIQRILEHCLPDQTLPILEELHQHTEQLVQDQYGSYVIEHVLEHGRPEDKSKIVAEIRGNVLVLSQHKFANNVVQKCVTHASRTERAVLIDEVCTMNDGPHSALYTMMKDQYANYVVQKMIDVAEPGQRKIVMHKIRPHIATLRKYTYGKHILAKLEKYYMKNGVDLGGPAGSGRADALDDFDLDMLGSDALDDFDLDMLGSDALDDFDLDMLGSDALDDFDLDMLYID | 5-10 copies
